The target in this test is glyceraldehyde-3-phosphate dehydrogenase (GAPDH) from Fischer 344 rat substantia nigra homogenate (rat (Fischer 344)) (UniProt P04797). The test is described as follows: pull-down from rat substantia nigra fractions, 2D-PAGE, MALDI-TOF MS.

Sequences of proteins named here, by UniProt entry; tags and fusion partners are left off.
UniProt P04797: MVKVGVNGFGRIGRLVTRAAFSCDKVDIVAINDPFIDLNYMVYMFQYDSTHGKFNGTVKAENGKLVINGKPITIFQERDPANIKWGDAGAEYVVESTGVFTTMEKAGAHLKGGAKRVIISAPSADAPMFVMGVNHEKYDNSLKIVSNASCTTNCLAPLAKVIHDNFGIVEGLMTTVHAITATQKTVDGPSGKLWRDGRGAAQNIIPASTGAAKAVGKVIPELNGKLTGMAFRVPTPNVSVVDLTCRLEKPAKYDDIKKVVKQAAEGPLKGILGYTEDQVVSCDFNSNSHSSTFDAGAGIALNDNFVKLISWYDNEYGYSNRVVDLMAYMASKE

No constants are given. Whether binding was seen depends on the method and setting. Binding seen in cells or lysates may run through a third protein. Some results given as binding are weak or reduced against the parent protein; the word gives no strength.

B1: biotinylated DNSP-11 (peptide)
peptide: PPEAPAEDRSL
modifications: N-terminal biotin; C-terminal amide
On to B1, for which the binding entry is “binds”.

For the origin of these results see patent US20130065830A1.
